# PubChem BioAssay AID1259308, NCATS – 2017
# Purpose: 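Genes whose loss raises luciferase production in HEK293 cells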 (primary screen)
# System: human HEK293 embryonic kidney cells stably expressing firefly luciferase (HEK-CMV-Luc2-Hygro)
# Reagent: single siRNA against human genes, 0.8 pmol siRNA per well
# Timing: 72 h
# Measurement: 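Reporter luminescence and viable-cell signal on separate replicate plates, given as percent of non-targeting control and median/MAD z-scores, plus per-cell luciferase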
# Direction: total luciferase, z-score and total luciferase, % of control: higher = more reporter protein produced; luciferase per cell, z-score: higher = more reporter output per viable cell
# Hit rule: 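An siRNA counts as active if its total luciferase robust z-score exceeds 3; genes with two or more such siRNAs out of three were retested with fresh siRNAs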
# Calls: active = raised luciferase; inactive = no rise
# Shown is one part, drawn at random, of about 59,000 reagents tested. About 1,510 of all reagents (2.6%) count as active. 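Calls use total luciferase alone and ignore viability, so some active siRNAs may act by altering cell number.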 The numbers tell different reagents against one gene apart. Further read-outs or replicates are left out here.
Gene,reagent,"total luciferase, z-score","total luciferase, % of control","luciferase per cell, z-score",Call
MOCOS,1,-0.874,64.5,-0.691,inactive
MOCOS,2,-0.506,71.8,0.228,inactive
MOCOS,3,-1.29,56.2,-1.5,inactive
FOXL2,1,-0.072,80.5,-0.547,inactive
FOXL2,2,0.0877,83.6,0.116,inactive
FOXL2,3,2.28,127,1.54,inactive
ETNPPL,1,2.33,128,1.51,inactive
ETNPPL,2,-1.96,42.8,-1.52,inactive
ETNPPL,3,0.115,84.2,-0.439,inactive
OLIG1,1,0.402,89.9,-0.125,inactive
OLIG1,2,-1.45,53,-1.54,inactive
OLIG1,3,1.03,102,1.75,inactive
S100P,1,-0.311,75.7,0.916,inactive
S100P,2,3.56,153,2.8,active
S100P,3,-0.29,76.1,-0.426,inactive
TKTL2,1,-1.11,59.7,-0.517,inactive
TKTL2,2,0.693,95.7,0.292,inactive
TKTL2,3,-0.0498,80.9,-0.462,inactive
MAD2L2,1,0.169,85.2,0.363,inactive
MAD2L2,2,2.04,122,1.67,inactive
MAD2L2,3,2.3,128,1.14,inactive
TEDDM1,1,2.15,125,1.03,inactive
TEDDM1,2,1.79,118,1.14,inactive
TEDDM1,3,-0.731,67.4,-0.513,inactive
LDHB,1,1.14,105,-0.105,inactive
LDHB,2,-0.511,71.7,1.28,inactive
LDHB,3,-0.707,67.8,-0.1,inactive
RPLP0,1,-1.68,48.6,-0.0859,inactive
RPLP0,2,-2.45,33.1,-0.557,inactive
RPLP0,3,-1.79,46.3,0.491,inactive
MRPL12,1,0.524,92.3,0.307,inactive
MRPL12,2,-0.225,77.4,1.05,inactive
MRPL12,3,-0.789,66.2,-1.08,inactive

Reprinted from the entries so far for reference:
Gene,reagent,"total luciferase, z-score","total luciferase, % of control","luciferase per cell, z-score",Call
ETNPPL,1,2.33,128,1.51,inactive
ETNPPL,2,-1.96,42.8,-1.52,inactive
ETNPPL,3,0.115,84.2,-0.439,inactive
OLIG1,1,0.402,89.9,-0.125,inactive
OLIG1,2,-1.45,53,-1.54,inactive
OLIG1,3,1.03,102,1.75,inactive
S100P,1,-0.311,75.7,0.916,inactive
S100P,2,3.56,153,2.8,active
S100P,3,-0.29,76.1,-0.426,inactive

Next entries follow:
Gene,reagent,"total luciferase, z-score","total luciferase, % of control","luciferase per cell, z-score",Call
PIWIL4,1,1.67,115,1.1,inactive
PIWIL4,2,0.212,86.1,-0.301,inactive
PIWIL4,3,-0.715,67.7,-1.27,inactive
ABL2,1,-0.0354,81.2,0.36,inactive
ABL2,2,-0.2,77.9,-0.457,inactive
ABL2,3,1.48,111,1.12,inactive
TPRN,1,-1.19,58.3,-1.01,inactive
TPRN,2,0.288,87.6,0.353,inactive
TPRN,3,-1.35,55,-0.995,inactive
HPX,1,-1.88,44.5,-0.466,inactive
HPX,2,-0.698,68,-0.948,inactive
HPX,3,0.298,87.8,1.23,inactive
ANKRD13C-DT,1,0.558,93,0.917,inactive
ANKRD13C-DT,2,0.00553,82,-0.249,inactive
ANKRD13C-DT,3,-0.0489,80.9,-0.643,inactive
CIMAP1B,1,-0.222,77.5,-0.0928,inactive
CIMAP1B,2,0.955,101,1.8,inactive
CIMAP1B,3,0.492,91.7,0.525,inactive
MYL11,1,-0.521,71.5,0.221,inactive
MYL11,2,0.21,86.1,-0.0915,inactive
MYL11,3,0.763,97.1,0.724,inactive
CPNE5,1,0.679,95.4,0.593,inactive
CPNE5,2,-0.632,69.3,-1.14,inactive
CPNE5,3,0.479,91.4,-0.472,inactive
